Measurements from PubChem BioAssay AID1347076 (National Center for Advancing Translational Sciences (NCATS), 2019).
The whole screen tested about 400,000 compounds, of which about 13,000 (3.2%) were called active. The shares of active, inactive and inconclusive entries below differ from those in the screen. Calls follow the shape of the dose curve; as a rule, active = well fitted cell-killing curve with a large enough effect; inconclusive = small, poorly fitted or top-dose-only effect, or effect the other way; inactive = flat fitted curve, though single readings scatter. Where the call is inconclusive, the potency comes from a doubtful curve fit.

Test: qHTS assay for MDR1-selective chemotherapeutics: Primary screen using the drug-selected MDR subline cells KB-V1; also: nearly all actives have a fitted effect of over 60% in size
Conditions: KB-V1 MDR cells viability, CellTiter-Glo, 72 h; activity change, negative = cytotoxicity: at 46.1 µM (top of the series)
How it was run: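 Luminescent ATP read-out (CellTiter-Glo, 10 min) measures survival of drug-selected KB-V1 MDR cells after 72 h, 37 degrees C compound exposure. Medium: phenol-red-free DMEM, 10% FBS. Values from fitted concentration-response curves.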
% is scaled to controls: 0 for no effect and ±100 for the full control effect; potency is read from the fitted curve at half-maximal effect.

Structure (SMILES)	Potency	activity change, negative = cytotoxicity
COc1ccc(CC(N)c2csc(NC(=O)NCCc3ccc(OC)c(OC)c3)n2)cc1 (configuration not stated)	inactive	
FC(F)(F)c1cccc(-n2c(Cn3nnc4ccccc43)n[nH]c2=S)c1	inactive	
CCOC(=O)CNC(=O)c1sc(NC(=O)c2ccccc2F)nc1C	inconclusive: 13 µM [cytotoxic, partial curve]	
O=C(COC(=O)c1cccc(Cl)c1)NC1CCS(=O)(=O)C1 (configuration not stated)		inconclusive: 32.4%
O=C(CN(c1ccccc1)S(=O)(=O)c1ccc(Cl)cc1)Nc1ccccc1C(=O)N1CCCC1	active: 5.8 µM	
COCCN1CC(C(=O)NCCc2nc(C)c(C)s2)CCC1=O (configuration not stated)		inconclusive: -9.11%
O=C(CN1CCN(C(=O)c2ccco2)CC1)Nc1cc(C(F)(F)F)ccc1Cl	inconclusive: 11.6 µM [cytotoxic, partial curve]	
CCOC(=O)c1cc2c(=O)n3ccccc3nc2n(CC2CCCO2)c1=NC(=O)c1ccc(F)cc1 (configuration not stated)	inactive	
COc1ccc(-c2nnc(SCC(=O)Oc3cc(C)ccc3C)o2)cc1	inactive	
CC(=O)N1N=C(c2ccccc2)CC1c1cccs1 (configuration not stated)	inactive	
O=C(Nc1ccc(Oc2ccccc2)nc1)[C@H]1O[C@@H](n2ccc(=O)[nH]c2=O)[C@H](O)[C@@H]1O	inactive	
COc1cc(C(=O)NC2CCN(C)CC2)ccc1Nc1ncc2c(n1)N(C1CCCC1)CCC(=O)N2C(C)C	inactive	
O=C(CNC(=O)c1ccc(Br)o1)Nc1ncccc1O	inactive	
CN(CCOc1ccccc1)C(=O)c1cc([N+](=O)[O-])ccc1N1CCOCC1	inconclusive: 16.4 µM [cytotoxic, single point]	
CSc1cccc(CN2CCN(CCC(C)C)C(CCO)C2)c1 (configuration not stated)	inactive	
CCN(C(=O)c1cccn(Cc2cccc(Cl)c2)c1=O)c1ccccc1	inconclusive: 29.1 µM [cytotoxic, single point]	
COc1ccc(Cl)cc1NC(=O)CN(C)C(=O)c1cccc(S(=O)(=O)N2CCN(C)CC2)c1	active: 20.6 µM	
CCCCCNC(=O)c1ccc2c(=O)n(CCc3ccccc3)c(=O)[nH]c2c1	inactive	
COc1ccc(-c2cc(C(F)(F)F)nc(N3CCN(C)CC3)n2)cc1OC	active: 16.4 µM	
CCN(CC)CCCNC(=S)N(CCO)Cc1cc2cc3c(cc2[nH]c1=O)OCCO3	inactive	
CC1(C)CC2CC(C)(CN2C(=O)c2ccc([N+](=O)[O-])cc2[N+](=O)[O-])C1 (configuration not stated)	inconclusive: 18.4 µM [cytotoxic, partial curve, poor fit]	
COc1ccc(Cn2c(C(=O)O)c(CNCc3ccc(C)o3)c3ccc(OC)cc32)cc1	inactive	
CCOc1ccc(NC(=O)c2ccc3nc(C(C)C)oc3c2)cc1	inconclusive: 29.1 µM [cytotoxic, single point]	
COc1ccc(NC(=O)C2c3ccccc3OCC(=O)N2CCc2ccccc2)cc1 (configuration not stated)	inactive	

Fetched by structure from above, 2 records:
Structure (SMILES)	Potency	activity change, negative = cytotoxicity
COc1cc(C(=O)NC2CCN(C)CC2)ccc1Nc1ncc2c(n1)N(C1CCCC1)CCC(=O)N2C(C)C	inactive	
CCN(CC)CCCNC(=S)N(CCO)Cc1cc2cc3c(cc2[nH]c1=O)OCCO3	inactive	

Going on with the list:

Structure (SMILES)	Potency	activity change, negative = cytotoxicity
COC(=O)c1oc2ccc(Br)cc2c1NC(=O)c1ccccc1	inconclusive: 29.1 µM [cytotoxic, single point]	
COc1ccc(Cn2c(=O)c3ccccc3n3c(-c4ccc(C)cc4)nnc23)cc1	inactive	
O=C(CSc1nc2ccccc2[nH]1)N/N=C/C=C\c1ccccc1[N+](=O)[O-]	inconclusive: 11.6 µM [cytotoxic, partial curve, poor fit]	
COC(=O)[C@@H](Cc1ccccc1)NC(=O)CC[C@H]1O[C@@H](n2cc(C)c(=O)[nH]c2=O)C[C@@H]1O	inconclusive: 5.17 µM [rising, full curve, poor fit]	
CC(=O)Nc1ccc2cnn(C(C)=O)c2c1	inactive	
CC(C)CN1CCC(=O)N([C@H](CN=[N+]=[N-])Cc2ccccc2)CC1	inconclusive: 16.4 µM [cytotoxic, partial curve, poor fit]	
S=c1[nH]nc(-c2cc(-c3ccccc3)n[nH]2)n1/N=C/C=C/c1ccccc1	inactive	
COc1ccccc1OC(C)C(=O)N1CCC(c2nc3ccccc3s2)CC1 (configuration not stated)	inconclusive: 9.2 µM [cytotoxic, partial curve]	
O=C(Nc1cccc(NC(=O)c2cc([N+](=O)[O-])ccc2Cl)n1)c1cc([N+](=O)[O-])ccc1Cl	active: 14.6 µM	
O=C(O)c1ccccc1COc1ccccc1Cl	inconclusive: 20.6 µM [cytotoxic, single point]	
CCCOP(=O)(c1ccc(N(C)C)cc1)C(Nc1ccccc1)c1ccc(C)cc1 (configuration not stated)	active: 20.6 µM	
COc1ccccc1NC(=S)N(CCCN1CCOCC1)Cc1cccs1	inconclusive: 5.17 µM [cytotoxic, full curve]	
OCCN1CCN(c2ncnc3ccc(Br)cc23)CC1	inconclusive: 29.1 µM [cytotoxic, single point]	
Cc1cccc(NC(=O)Nc2ccc(S(N)(=O)=O)cc2)c1	inconclusive: 0.651 µM [rising, full curve, poor fit]	
Cc1ccc(C)c(CN2C(=O)CSc3ccc(C(=O)NCc4ccccc4)cc32)c1	inconclusive: 32.6 µM [cytotoxic, single point]	
CCn1c(SCc2nc(-c3cccs3)no2)nnc1-c1c[nH]c2ccccc12	inactive	
O=C(Oc1ccc(Br)cc1)c1cccnc1	inconclusive: 7.31 µM [rising, partial curve, poor fit]	
CC1(C)C2CC=C(/C=N/NC(=O)c3ccc(Cl)cc3)C1C2 (configuration not stated)	inconclusive: 20.6 µM [cytotoxic, single point]	
CCOc1cc(/C=N/O)ccc1OS(=O)(=O)c1ccc(C)cc1	inconclusive: 11.2 µM [cytotoxic, partial curve]	
CCN(CC(=O)NCc1cccs1)C(=O)/C=C/c1ccc(Cl)c(Cl)c1	inconclusive: 29.1 µM [cytotoxic, single point]	
COc1ccc(N2CCN(C(=O)c3cc4cc(Cl)ccc4[nH]3)CC2)cc1	inactive	
O=C1c2ccccc2C(=O)N1c1nc(-c2ccc(F)cc2)cs1	inconclusive: 23.1 µM [rising, partial curve]	
COCCn1c(C)cc(C(=O)CSc2nc3ccccc3c(=O)n2Cc2ccco2)c1C	active: 0.651 µM	
COc1cc(/C=C/C(=O)Nc2ccc(OC)c(S(=O)(=O)N3CCOCC3)c2)ccc1OC(F)F	inconclusive: 23.1 µM [cytotoxic, partial curve, poor fit]	

Structure (SMILES)	Potency	activity change, negative = cytotoxicity
CCOC(=O)c1csc(Nc2nc3ccc(F)cc3s2)n1	inconclusive: 20.6 µM [cytotoxic, partial curve]	
COc1ccc(NC(=O)c2cnc3sc(N4CCOCC4)nn3c2=O)c(OC)c1	inconclusive: 29.1 µM [rising, single point]	
O=C(NC1CCN(Cc2ccccc2)CC1)c1ccccc1NS(=O)(=O)c1ccc(F)c(F)c1	inactive	
Cc1cc(C)cc(NC(=O)C2CCCN2C(=O)Oc2ccccc2)c1 (configuration not stated)	inconclusive: 16.4 µM [cytotoxic, single point]	
CCCCCNC(=O)C(C)Sc1ccc(Cl)cc1 (configuration not stated)	inconclusive: 18.4 µM [cytotoxic, single point]	
COc1ccc(N2CCN(c3ccc(N4C(=O)COCC4=O)cc3[N+](=O)[O-])CC2)cc1	inconclusive: 14.6 µM [cytotoxic, single point]	
Cc1ccc(CCNC(=O)c2sc3nc4n(c(=O)c3c2C)CCCC4)cc1	inactive	
O=C(OCC(=O)N1CCCC1=O)c1nc(Cl)c(Cl)c(Cl)c1Cl	inactive	
C[C@H](CO)N1C[C@H](C)[C@H](CN(C)S(C)(=O)=O)OCc2ccccc2-c2c(n(C)c3ccccc23)C1=O	inconclusive: 29.1 µM [rising, single point]	
CC1CCN(C(=O)Nc2ccc3nc(-c4ccco4)c(-c4ccco4)nc3c2)CC1	inconclusive: 10.3 µM [cytotoxic, partial curve, poor fit]	
Cc1nnc(SCC(=O)c2c(N)n(C)c(=O)n(C)c2=O)n1Cc1ccccc1	inactive	
Cc1ccc2onc(CNC(=O)N3CCN(c4cc(Cl)ccc4C)CC3)c2c1	inactive	
CC(C)OP(=O)(c1ccc(N(C)C)cc1)C(Nc1ccccc1)c1cccnc1 (configuration not stated)	inactive	
COc1cc(/C=C2\C=Cc3ccccc32)cc(OC)c1OC	inactive	
CCN(C(=O)CSc1nc(C)c(C)c(C)n1)C1CCS(=O)(=O)C1 (configuration not stated)	inactive	
O=S(=O)(Oc1ccccc1)c1ccc(Cl)c(Cl)c1	inconclusive: 29.1 µM [rising, single point]	
Cc1ccc2c(c1)-c1c(cnc3cc(-c4ccc(Cl)cc4)nn13)CO2	inconclusive: 8.2 µM [rising, partial curve, poor fit]	
COCCCNC(=O)CSc1nc2c(sc3ccccc32)c(=O)n1CCCC(=O)NCC1CCCO1 (configuration not stated)	inconclusive: 29.1 µM [cytotoxic, single point]	
O=C(CSc1ccc(Br)cc1)N1CCN(C(=O)c2ccco2)CC1	inconclusive: 0.82 µM [cytotoxic, full curve]	
O=C(Nc1cccc(-c2ccc(N3CCOCC3)nn2)c1)c1ccccc1	inconclusive: 16.4 µM [cytotoxic, partial curve, poor fit]	
Cc1ccc(C)c(-c2nnc(NC(=O)c3ccco3)o2)c1	inconclusive: 5.17 µM [cytotoxic, full curve]	
CC(=O)Nc1cccc2c1Cc1cc([N+](=O)[O-])ccc1-2	inconclusive: 13 µM [cytotoxic, partial curve]	
COc1cccc(Oc2c(C)oc3c(CN4CCCCC4)c(O)ccc3c2=O)c1	inconclusive: 14.6 µM [cytotoxic, partial curve, poor fit]	
O=C(CNC(=S)N(Cc1ccccc1)Cc1cccnc1)N1CCOCC1	inactive	

Entries of single compounds from above.
`CCOC(=O)c1csc(Nc2nc3ccc(F)cc3s2)n1` is entered as Potency: inconclusive: 20.6 µM [cytotoxic, partial curve]
`COc1ccccc1NC(=S)N(CCCN1CCOCC1)Cc1cccs1` is entered as Potency: inconclusive: 5.17 µM [cytotoxic, full curve]
`COc1ccc(Cn2c(=O)c3ccccc3n3c(-c4ccc(C)cc4)nnc23)cc1` is entered as Potency: inactive
`COc1ccc(-c2nnc(SCC(=O)Oc3cc(C)ccc3C)o2)cc1` is entered as Potency: inactive
